Measurements: paper PMC10564908
Results are given in words; binding and its absence hold for the method and conditions named. Binding seen in cells or lysates may run through a third protein. Some results given as binding are weak or reduced against the parent protein; the word gives no strength.

The chains behind the UniProt entries cited, without tags or fusion partners.
UniProt Q96EB6: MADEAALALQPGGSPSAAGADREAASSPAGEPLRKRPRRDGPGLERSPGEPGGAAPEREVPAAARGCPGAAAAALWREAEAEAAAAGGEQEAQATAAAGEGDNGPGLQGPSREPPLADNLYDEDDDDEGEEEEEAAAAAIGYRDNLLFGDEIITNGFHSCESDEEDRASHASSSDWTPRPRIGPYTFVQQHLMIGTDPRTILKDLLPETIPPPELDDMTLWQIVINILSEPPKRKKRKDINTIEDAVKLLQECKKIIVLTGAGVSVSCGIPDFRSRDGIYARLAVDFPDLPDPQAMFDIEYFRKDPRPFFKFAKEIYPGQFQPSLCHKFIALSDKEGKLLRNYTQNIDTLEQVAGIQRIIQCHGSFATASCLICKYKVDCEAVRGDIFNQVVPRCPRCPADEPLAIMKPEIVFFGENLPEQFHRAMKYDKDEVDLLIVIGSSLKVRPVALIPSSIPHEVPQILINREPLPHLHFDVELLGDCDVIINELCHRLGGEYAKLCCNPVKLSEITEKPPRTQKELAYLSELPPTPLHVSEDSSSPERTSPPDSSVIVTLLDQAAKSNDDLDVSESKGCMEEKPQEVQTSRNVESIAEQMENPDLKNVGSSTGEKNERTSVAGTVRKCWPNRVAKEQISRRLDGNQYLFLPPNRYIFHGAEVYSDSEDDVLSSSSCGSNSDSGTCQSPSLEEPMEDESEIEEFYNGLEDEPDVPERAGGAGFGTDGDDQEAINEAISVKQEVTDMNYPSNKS

What was measured:
[1] = target: FLAG-tagged SIRT1 (full length SIRT1-FLAG) (UniProt Q96EB6); assay: proximity ligation; HEK293T cells transfected with HSP90α-HA and SIRT1-FLAG constructs (full length or fragments), fixed and permeabilised; anti-FLAG and anti-HA primary antibodies; Duolink, signal at <40 nm; interphase and mitotic cells
[2] = target: FLAG-tagged SIRT1 (full length SIRT1-FLAG) (UniProt Q96EB6); assay: co-IP; lysates of HEK293T cells overexpressing FLAG-tagged SIRT1; immunoprecipitation with α-FLAG or with α-HSP90α antibody on magnetic beads (Universal Magnetic Co-IP Kit), 4 °C; immunoblot
[3] = target: endogenous SIRT1 in DLBCL cells (human (endogenous in DLBCL cell lines)) (UniProt Q96EB6); assay: proximity ligation; endogenous proteins in fixed, permeabilised OxPhos and non-OxPhos DLBCL cell lines; anti-SIRT1 and anti-HSP90α primary antibodies; Duolink, signal at <40 nm; interphase and mitotic cells (starvation/nocodazole enrichment)

## HA-tagged HSP90α (HSP90α-HA) (from UniProt P07900 1-732)
[1]
  binding: binds

## HSP90α (in HEK293T cells overexpressing FLAG-tagged SIRT1) (from UniProt P07900 1-732)
[2]
  binding: binds

## endogenous HSP90α in DLBCL cells (from UniProt P07900 1-732)
[3]
  binding: binds
